From doi:10.1101/2025.10.11.681827
Results are given in words; binding and its absence hold for the method and conditions named. In cells and extracts the contact can be indirect. These calls come from enrichment with a bait or labelling near it, and not all partners need be listed. No binding means not detected with the bait.

Target: PUM2-HisLinker-Venus (Arabidopsis thaliana)
Experiment: affinity purification with mass spectrometry

B1: EVOLUTIONARILY CONSERVED C-TERMINAL REGION2 (ECT2) (protein, UniProt Q9LJE5 1-667)
chain: MATVAPPADQATDLLQKLSLDSPAKASEIPEPNKKTAVYQYGGVDVHGQVPSYDRSLTPMLPSDAADPSVCYVPNPYNPYQYYNVYGSGQEWTDYPAYTNPEGVDMNSGIYGENGTVVYPQGYGYAAYPYSPATSPAPQLGGEGQLYGAQQYQYPNYFPNSGPYASSVATPTQPDLSANKPAGVKTLPADSNNVASAAGITKGSNGSAPVKPTNQATLNTSSNLYGMGAPGGGLAAGYQDPRYAYEGYYAPVPWHDGSKYSDVQRPVSGSGVASSYSKSSTVPSSRNQNYRSNSHYTSVHQPSSVTGYGTAQGYYNRMYQNKLYGQYGSTGRSALGYGSSGYDSRTNGRGWAATDNKYRSWGRGNSYYYGNENNVDGLNELNRGPRAKGTKNQKGNLDDSLEVKEQTGESNVTEVGEADNTCVVPDREQYNKEDFPVDYANAMFFIIKSYSEDDVHKSIKYNVWASTPNGNKKLAAAYQEAQQKAGGCPIFLFFSVNASGQFVGLAEMTGPVDFNTNVEYWQQDKWTGSFPLKWHIVKDVPNSLLKHITLENNENKPVTNSRDTQEVKLEQGLKIVKIFKEHSSKTCILDDFSFYEVRQKTILEKKAKQTQKQVSEEKVTDEKKESATAESASKESPAAVQTSSDVKVAENGSVAKPVTGDVVANGC
In the case of B1, the binding is reported as “no binding”.
